In patent US9839674B2, “Methods of inducing indolamine 2,3—dioxygenase (IDO)” (IDOGEN AB, priority 2010, dated 2017):
At least one compound was matched to its structure with a doubt left.

How the values were obtained:
[1] = system: IDO1 expression in THP-1 cells; experiment: IDO1 expression in THP-1 cells by PCR / quantitative real-time PCR; format: cell-based, human; settings: FIG. 5
Experimental: (§1) THP-1 (ATCC: TIB-202) is a human monocytic cell line that originates from an acute monocytic leukemia. It has the phenotype of monocytes but can be differentiated to a more dendritic phenotype. In the current study, the THP-1 cells were in vitro passaged in RPMI 1640 medium supplemented with 5% or 10% FCS, 10 mM Hepes, 1 mM Sodium pyruvate, and 50 ug/ml gentamicin (R5 or R10 medium respectively). The cell density was adjusted to 200 000 cells per ml, and the cultures were incubated for four to seven days at 37° C. with 10% CO2 in a humidified incubator. The substance, or combination of substances, being studied, were added to the medium at specified time points and in the case of IFN-gamma removed from medium as indicated. 96-168 hours after initiation of treatment, the IDO expression was assessed by PCR or by Quantitative PCR (Roche). RNA was extracted from cells cultured in flasks or six-well plates using Trizol reagent according to Invitrogen's protocol. Residual DNA was removed through Rnase free DNase (Roche Applied Science) treatment. Quality and quantity of the isolated RNA was measured by spectrophotometer and gel electrophoresis.
Quantitative real-time PCR analyses (qRT-PCR) were performed using Super-Script III Platinum Two-Step qRT-PCR Kit with SYBR Green (Invitrogen). […]

[2] = system: IDO1 expression in THP-1 cells; experiment: IDO1 expression in THP-1 cells by reverse transcriptase PCR (bands), kinetics; format: cell-based, human
Experimental: as §1, with “RNA was extracted from cells cultured in flasks or six-well plates using Trizol reagent according to Invitrogen's protocol. Residual DNA was removed through Rnase free DNase (Roche Applied Science) treatment.” left out
The sequences of forward primers and reverse primers for the human IDO-1 gene analyzed and the house-keeping gene HPRT respectively, were: IDO-1 forward: 5′-[…]-3′, reverse: 5′-C AGAC AAAT AT A TGCGAAGAAC; HPRT Forward: 5′-[…]-3′, HPRT Reverse: 5′-ACTAAGCAGATGGCCAC AGAA-3′. […]
Materials and methods used were the same as described in Example 1 above. […] In panel B, the THP-1 cells were given zebularine alone during 5 days and a weak band was detected. […]

IDO1 expression in BMDC = experiment: IDO1 expression in rat bone marrow derived dendritic cells (BMDC) exposed in vitro; format: cell-based; settings: zebularine 50 uM during days 5-10 of culture, FIG. 13a
[3] = system: spleen CD4+ and CD8+ T-cells; experiment: Suppression by treated BMDC of anti-CD3 stimulated spleen T-cell proliferation (CFSE, FACS); format: cell-based, Fischer 344 rats; settings: BMDC exposed to zebularine 50 uM, admixed 1:30 to spleen cells, anti-CD3 stimulation; FIG. 13b
[4] = system: IDO1 expression in spleen cells; experiment: IDO1 expression in spleen after 7 daily intraperitoneal inoculations (quantitative RT-PCR); format: in vivo; settings: Wistar rats; 225 mg/kg/day intraperitoneal for 7 days; FIG. 14a
spleen T lymphocytes = experiment: T cell proliferative reactivity of spleen cells from treated rats to anti-CD3 (CFSE, FACS); format: in vivo; settings: Wistar rats; 225 mg/kg/day intraperitoneal for 7 days; anti-CD3 stimulation in vitro; FIG. 14b
[5] = system: allotransplanted Lewis rat pancreatic islets; experiment: Rejection of allotransplanted pancreatic islets beneath the kidney capsule (blood glucose follow up); format: in vivo; settings: Fischer 344 rats, 225 mg/kg intraperitoneal daily for 14 days, FIG. 16
Experimental: Pancreatic islets were isolated from the pancreas of Lewis rats by established technique. After culture at 37° C. over night, 500-1200 islets were implanted beneath the kidney capsule of adult (11-14 weeks old) Fischer 344 rats that were confirmed hyperglucemic (blood glucose >20 mMol/L) after having received a single dose of 35-40 mg/kg intraperitoneally of Streptozotocine, which is selectively toxic to the insulin producing beta cells present in the pancreatic islets. […] The two exceptional rats that maintained a normal blood sugar were subjected to nephrectomy 40 and 43 days after transplantation to check whether their normal blood glucose was a result of unexpected sustained survival of the grafted islets (in which case their blood sugar should promptly increase upon removal of the graft) or was due to a recovery of some Streptozotocine-damaged pancreatic islets (in which case their blood sugar should stay normal despite removal of the graft). […] Twenty two days after transplantation only 1/10 of the zebularine treated rats had rejected the graft as indicated by a normal blood sugar in all but this single rat at completion of the treatment 20-22 days after transplantation and in all of 7 analyzed >1 week after the zebularine treatment was stopped (FIG. 16).

`O=c1ncccn1[C@@H]1O[C@H](CO)[C@@H](O)[C@H]1O` [zebularine] was tested, and the “IDO1 induction after 96 hours” value ([1]; zebularine 100 uM alone for the entire period, harvest 96 h) was “small increase”, the “IDO1 induction after 24 hours” value ([1]; zebularine 100 uM or interferon gamma 200 IU/ml alone, harvest 24 h) was “no IDO1 induction” and the “IDO1 expression (RT-PCR band), panel B” value ([2]; zebularine 5 days, interferon gamma after 3 days for 24 h, tested 24 hours after removal, FIG. 6B) was “weak band”. The “IDO1 expression (RT-PCR band), panel A” value ([2]; zebularine four days, interferon gamma added after 3 days, 24 hours before harvest, FIG. 6A) was “low effect”, the “expression of IDO1 versus immature control BMDC” value (IDO1 expression in BMDC) was “enhances the expression of IDO1” and the “suppressive effect of treated BMDC on proliferative response of CD4+ and CD8+ T-cells versus control BMDC” value [3] was “significantly stronger suppressive effect”. The “expression of IDO1 in spleen cells versus PBS controls” value [4] was “enhanced expression of IDO1”, the “calculated T cell proliferative response of spleen cells versus PBS-treated control rats” value (spleen T lymphocytes) was “approximately three times lower” and the “rats with normal blood sugar >1 week after the treatment was stopped” value [5] was “all of 7”.
